Measurements: publication PMC7819943, “Rice protein-binding microarrays: a tool to detect cis-acting elements near promoter regions in rice”
Some of the results follow.

Target: T1, OsSMF1 (Oryza sativa, UniProt Q6ZLB0 1-436)
T1 sequence: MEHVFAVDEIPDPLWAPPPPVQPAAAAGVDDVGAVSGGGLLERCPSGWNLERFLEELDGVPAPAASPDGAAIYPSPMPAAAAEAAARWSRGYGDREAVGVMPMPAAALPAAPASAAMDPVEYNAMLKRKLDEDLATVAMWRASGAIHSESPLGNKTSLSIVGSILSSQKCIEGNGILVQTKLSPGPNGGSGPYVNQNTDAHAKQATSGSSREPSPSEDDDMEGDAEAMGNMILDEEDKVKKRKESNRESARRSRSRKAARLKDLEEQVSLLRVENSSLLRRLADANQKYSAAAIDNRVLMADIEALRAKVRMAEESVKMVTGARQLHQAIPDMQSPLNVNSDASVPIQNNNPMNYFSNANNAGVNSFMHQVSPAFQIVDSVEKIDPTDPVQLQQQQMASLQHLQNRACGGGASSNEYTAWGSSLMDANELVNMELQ
Assay: protein-binding microarray (RPBM); PBS, 2% BSA, 51.3 ng/ul salmon testes DNA, 50 uM zinc acetate, 200 nM TF, 25 C, 1 h; high values mean tight binding
Conditions: protein: recombinant; tags: N-terminal polyhistidine and DsRed monomer fusion (pET32a); chain copies: 2; label: CyDye5-dUTP incorporated in the synthesized complementary strand; 3' TTTTT single-stranded linker to array surface; dsDNA, one strand shown
In short: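 Binding signal here means per-feature fluorescence intensity in arbitrary units. The values were read on an Axon 4000B scanner after a custom Agilent array, double-stranded by primer extension with Cy5-dUTP, was incubated with 200 nM protein at 25 °C for 1 h in PBS with 2% BSA, salmon testes DNA and 50 µM zinc acetate, then washed. The proteins were transcription factors with an N-terminal polyhistidine tag and DsRed, expressed in E. coli BL21-CodonPlus and purified on Ni–NTA.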

Q: For “ACCTACCAAAGTGACAAGGCATTTTGTCCCGGATGGTTTTCGGAGTCACCTAGTGCAG”, which binding signal is on record?
A: The binding signal was 5280 fluorescence intensity (a.u.).

Q: Which binding signal does the source give for “CTGTACAGGCTCATGACGTACCACGAGGTCATCGACGAGACGGAGTCACCTAGTGCAG” here?
A: Its binding signal is 4310 fluorescence intensity (a.u.).

Q: With “TACAGGCGCCCTCCTCCTACCACGTCGGTTCGAGTGTGCCCGGAGTCACCTAGTGCAG” as the sequence, how does the binding signal read?
A: The binding signal was 4970 fluorescence intensity (a.u.).

Q: For “TCTCCTACGTACAGCCACCTTACCTGTTGCGTCAACGAGACGGAGTCACCTAGTGCAG”, which binding signal is on record?
A: The binding signal was 3450 fluorescence intensity (a.u.).

Q: How did the binding signal turn out when “TTAATAATCACTAGTGGTCACACGTGTAAGCACTACTAGTCGGAGTCACCTAGTGCAG” was run?
A: The binding signal was 5390 fluorescence intensity (a.u.).

Q: For “ACAGCGTTGTGCTTTCAGTGGTAGGTGACGTACCCGTCGACGGAGTCACCTAGTGCAG”, which binding signal is on record?
A: Its binding signal is 5560 fluorescence intensity (a.u.).

Q: How did the binding signal turn out when “TGACCTTTGTGCATGTTTTCGTGCGCTGAATCATGCTTGACGGAGTCACCTAGTGCAG” was run?
A: Its binding signal is 3590 fluorescence intensity (a.u.).

Q: How did the binding signal turn out when “TCTCTCTCTCTCGCACAATCATCGCCGCCACCACCCTCTGCGGAGTCACCTAGTGCAG” was run?
A: Its binding signal is 3410 fluorescence intensity (a.u.).

Q: “AGCTTGGGACATTGGTATCTATTGTTCGACAGGTAAGATGCGGAGTCACCTAGTGCAG” was tested. Which binding signal did it give?
A: Its binding signal is 3410 fluorescence intensity (a.u.).

Q: Which binding signal does the source give for “AGTTTTATAAAAGAGGTGGATGTTGCATCTAATCTTGACCCGGAGTCACCTAGTGCAG” here?
A: Its binding signal is 7990 fluorescence intensity (a.u.).

Q: Which binding signal does the source give for “TTACATTGGGGTGGGAGATGACGCAGTCGGCGACGGCACCCGGAGTCACCTAGTGCAG” here?
A: The binding signal was 4870 fluorescence intensity (a.u.).

Q: How did the binding signal turn out when “CCTACCCCTTTCGTCTCTGCCACGCCCGTGCATATCCATCCGGAGTCACCTAGTGCAG” was run?
A: Its binding signal is 31300 fluorescence intensity (a.u.).

Q: “GACGGCGCGACGGAGACTGGCGGGGATAGGGGTGAGGTGGCGGAGTCACCTAGTGCAG” was tested. Which binding signal did it give?
A: The binding signal was 5460 fluorescence intensity (a.u.).

Q: For “ACCATATTCCAATGCTACCTGTGTGCTGCAACCTTCAAGTCGGAGTCACCTAGTGCAG”, which binding signal is on record?
A: The binding signal was 3330 fluorescence intensity (a.u.).

Q: How did the binding signal turn out when “GCTCTCCCCACCGGTGGTGAGTCACCACGCTGCGTGGCAACGGAGTCACCTAGTGCAG” was run?
A: Its binding signal is 11400 fluorescence intensity (a.u.).

Q: “GATCATGAGTTTGATGACTCAGACAAATGGCACGCTCTAACGGAGTCACCTAGTGCAG” was tested. Which binding signal did it give?
A: The binding signal was 10000 fluorescence intensity (a.u.).

Q: For “ACGGACGGCTTAGATTTCATTAGCCCACACCCAACCCTAGCGGAGTCACCTAGTGCAG”, which binding signal is on record?
A: Its binding signal is 3220 fluorescence intensity (a.u.).

Q: Which binding signal does the source give for “AGTTATTGGTGTACACTAGTCGGCAGGCTAGATTAGCTAGCGGAGTCACCTAGTGCAG” here?
A: Its binding signal is 15300 fluorescence intensity (a.u.).

Q: For “TGCGTTCCTTGTCGGGAGGGAGGCTGACGCGCCGACGAGCCGGAGTCACCTAGTGCAG”, which binding signal is on record?
A: The binding signal was 4790 fluorescence intensity (a.u.).

Q: For “TTTACAGAGCAAAACCAGAGAATAGAAACCAGCTCGTCTTCGGAGTCACCTAGTGCAG”, which binding signal is on record?
A: Its binding signal is 5360 fluorescence intensity (a.u.).

Q: “TAGAGCTGTAGTTAGTAGTCCGGTCATCTAAGTTAGCATGCGGAGTCACCTAGTGCAG” was tested. Which binding signal did it give?
A: Its binding signal is 3440 fluorescence intensity (a.u.).

Q: How did the binding signal turn out when “TCCTGCTCCGCCCACTCACCCCGCCACGTGGTGGCTGGGTCGGAGTCACCTAGTGCAG” was run?
A: Its binding signal is 12200 fluorescence intensity (a.u.).

Q: “ATTTCCGGGCGTGACATTATATAAGCGTACGTGTGCCCTGCGGAGTCACCTAGTGCAG” was tested. Which binding signal did it give?
A: Its binding signal is 5400 fluorescence intensity (a.u.).

Q: For “ATCAGCTTTCTCAAACCACGCAGCCACGACACATCGATCTCGGAGTCACCTAGTGCAG”, which binding signal is on record?
A: Its binding signal is 4250 fluorescence intensity (a.u.).

Q: “CTGTGTAGGCTCGTATTTAAGTAGTGCCGTGTGAACTTTCCGGAGTCACCTAGTGCAG” was tested. Which binding signal did it give?
A: The binding signal was 17700 fluorescence intensity (a.u.).

Q: How did the binding signal turn out when “CGACCCCGTGGTCACGCTCCACGCCATCCGCGCCACCGACCGGAGTCACCTAGTGCAG” was run?
A: Its binding signal is 7680 fluorescence intensity (a.u.).

Q: How did the binding signal turn out when “TCAGCTAGAATGCTTTAGGACTCCTTTACTAACGCAAGGACGGAGTCACCTAGTGCAG” was run?
A: The binding signal was 3770 fluorescence intensity (a.u.).

Q: How did the binding signal turn out when “GGTGCTAACCTTCTCCTGGTCATGTGTGTTGGCGCTGCCACGGAGTCACCTAGTGCAG” was run?
A: Its binding signal is 3810 fluorescence intensity (a.u.).

Q: With “CCCACCTCATCCCTGGCCCCACATGTCATCCACCCAAATCCGGAGTCACCTAGTGCAG” as the sequence, how does the binding signal read?
A: The binding signal was 3150 fluorescence intensity (a.u.).

Q: How did the binding signal turn out when “AGGTGTACCTAGCAAACTAGCTAGCAACTGTACACGCGTACGGAGTCACCTAGTGCAG” was run?
A: Its binding signal is 3430 fluorescence intensity (a.u.).

Q: For “GCGGCGGCGGCGCGAGGTTGACGACGACCCTGTCAGCGGGCGGAGTCACCTAGTGCAG”, which binding signal is on record?
A: Its binding signal is 3550 fluorescence intensity (a.u.).

Q: How did the binding signal turn out when “GGTTTTAGCTGACGTGGCGCCTACGTGACAGTGTTGACCCCGGAGTCACCTAGTGCAG” was run?
A: Its binding signal is 32700 fluorescence intensity (a.u.).

Q: For “CTCATAGTCATAGTTACTGATTTGTTTGCTCATAGTCATACGGAGTCACCTAGTGCAG”, which binding signal is on record?
A: Its binding signal is 22700 fluorescence intensity (a.u.).

Q: Which binding signal does the source give for “TCCATCTCCAGGTCAAGATTTCTGGTTTTGCGGTTCAGTGCGGAGTCACCTAGTGCAG” here?
A: The binding signal was 20900 fluorescence intensity (a.u.).

Q: Which binding signal does the source give for “CGTCAGATTATCTCTTGCGTGTTGCGTGTAGCTCACCGGACGGAGTCACCTAGTGCAG” here?
A: Its binding signal is 4190 fluorescence intensity (a.u.).

Q: Which binding signal does the source give for “ATCTCTAAACACCAAATTTGACACCGATCCACGTGCACACCGGAGTCACCTAGTGCAG” here?
A: The binding signal was 7210 fluorescence intensity (a.u.).

Q: Which binding signal does the source give for “TAAGGAAGTGCTACAACTTATACAAACAGCTCATAACAGGCGGAGTCACCTAGTGCAG” here?
A: The binding signal was 3830 fluorescence intensity (a.u.).

Q: Which binding signal does the source give for “CTACCAGACCCGTGGGCCGGCTCTGCCTCGCCTAATCCAGCGGAGTCACCTAGTGCAG” here?
A: The binding signal was 47000 fluorescence intensity (a.u.).

Q: “CTAATGGCACATAGAAATTAGGAGTAACTGTTGTTTAAAACGGAGTCACCTAGTGCAG” was tested. Which binding signal did it give?
A: The binding signal was 37600 fluorescence intensity (a.u.).

Q: How did the binding signal turn out when “GAAACCCCGTGGGCCCCACCTGTCATTCACTCACCCACCCCGGAGTCACCTAGTGCAG” was run?
A: The binding signal was 3460 fluorescence intensity (a.u.).

Q: “TAGGCTCCAACCCAGGCAGGCGCCGCCCACCTTGACGAGGCGGAGTCACCTAGTGCAG” was tested. Which binding signal did it give?
A: The binding signal was 3500 fluorescence intensity (a.u.).

Q: For “TCTACACATGGACATGCTGCCTGCTGCATCATATCGTCTGCGGAGTCACCTAGTGCAG”, which binding signal is on record?
A: Its binding signal is 3480 fluorescence intensity (a.u.).
